# In patent US9598389B2, “Dihydrobenzofuran derivatives as insecticidal compounds” (SYNGENTA PARTICIPATIONS AG, priority 2013, dated 2017):
# Some of these results come from one statement about several compounds together. At least one compound was matched to its structure with a doubt left.
# Columns and labels:
# Assay type in all cases: in vivo
# [1] = test system: Tetranychus urticae (Two-Spotted Spider Mite); assay: Tetranychus urticae bean leaf disc spray test; conditions: application rate of 200 ppm; 8 days after infestation
# Protocol: Tetranychus urticae (Two-Spotted Spider Mite):
# Bean leaf discs on agar in 24-well microtiter plates were sprayed with aqueous test solutions prepared from 10,000 ppm DMSO stock solutions. After drying the leaf discs were infested with a mite population of mixed ages. The samples were assessed for mortality on mixed population (mobile stages) 8 days after infestation.
# [2] = test system: Thrips tabaci (Onion Thrips); assay: Thrips tabaci sunflower leaf disc spray test; conditions: application rate of 200 ppm; population of mixed ages; 6 days after infestation
# Protocol: Thrips tabaci (Onion Thrips):
# Sunflower leaf discs were placed on agar in 24-well microtiter plates and sprayed with aqueous test solutions prepared from 10,000 ppm DMSO stock solutions. After drying the leaf discs were infested with a thrips population of mixed ages. The samples were assessed for mortality 6 days after infestation.
# [3] = test system: Plutella xylostella (Diamond Back Moth); assay: Plutella xylostella L2 larvae test on artificial diet; conditions: application rate of 200 ppm, 5 days after infestation
# Protocol: Plutella xylostella (Diamond Back Moth):
# (§1) 24-well microtiter plates with artificial diet were treated with aqueous test solutions prepared from 10,000 ppm DMSO stock solutions by pipetting. After drying, the plates were infested with L2 larvae (10 to 15 per well). The samples were assessed for mortality and growth inhibition in comparison to untreated samples 5 days after infestation.
# [4] = test system: Diabrotica balteata (Corn Root Worm); assay: Diabrotica balteata L2 larvae test on artificial diet; conditions: application rate of 200 ppm, 5 days after infestation
# Protocol: Diabrotica balteata (Corn Root Worm):
# as §1, with “(6” for “(10”, “10” for “15”
# [5] = test system: Spodoptera Littoralis (Egyptian Cotton Leaf Worm); assay: Spodoptera littoralis cotton leaf disc spray test; conditions: application rate of 200 ppm; L1 larvae; 3 days after infestation
# [6] = test system: Heliothis virescens (Tobacco Budworm); assay: Heliothis virescens egg/larval test on artificial diet; conditions: application rate of 200 ppm; eggs 0-24 h old; 5 days after infestation
# Protocol: Heliothis virescens (Tobacco Budworm):
# Eggs (0-24 h old) were placed in 24-well microtiter plates on artificial diet and treated with aqueous test solutions prepared from 10,000 ppm DMSO stock solutions by pipetting. The samples were assessed for egg and larval mortality 5 days after infestation.
Structure (SMILES),mortality on mixed population (mobile stages) [1],mortality [2] [%],effect in at least one of the two categories (mortality or growth inhibition) [3] [%],effect in at least one of the two categories (mortality or growth inhibition) [4] [%],"control (at least one of mortality, anti-feedant effect, growth inhibition) [5]",egg or larval mortality [6] [%]
CCC(=O)Nc1cc(-c2ccc3c(c2)CC(c2cc(Cl)cc(Cl)c2)(C(F)(F)F)O3)ccc1F (centres unmarked) [Compound 185],at least 80%,≥ 80,≥ 80,≥ 80,at least 80%,≥ 80
CS(=O)(=O)CC(=O)Nc1cccc(-c2ccc3c(c2)CC(c2cc(Cl)cc(Cl)c2)(C(F)(F)F)O3)c1 (centres unmarked) [Compound 102],at least 80%,≥ 80,≥ 80,≥ 80,at least 80%,≥ 80
Cc1cc(C#N)ccc1C(=O)Nc1cc(-c2ccc3c(c2)CC(c2cc(Cl)cc(Cl)c2)(C(F)(F)F)O3)ccc1C#N (centres unmarked) [Compound 209],at least 80%,≥ 80,≥ 80,≥ 80,at least 80%,≥ 80
CC(C)C(=O)Nc1cc(-c2ccc3c(c2)CC(c2cc(C(F)(F)F)cc(C(F)(F)F)c2)(C(F)(F)F)O3)ccc1C#N (centres unmarked) [Compound 220],at least 80%,≥ 80,≥ 80,≥ 80,at least 80%,≥ 80
CCC(=O)Nc1cc(-c2ccc3c(c2)CC(c2cc(Cl)c(F)c(Cl)c2)(C(F)(F)F)O3)ccc1C#N (centres unmarked) [Compound 229],at least 80%,≥ 80,≥ 80,≥ 80,at least 80%,≥ 80
O=C(CC1CC1)Nc1cccc(-c2ccc3c(c2)CC(c2cc(Cl)cc(Cl)c2)(C(F)(F)F)O3)c1 (centres unmarked) [Compound 157],at least 80%,≥ 80,≥ 80,≥ 80,at least 80%,≥ 80
O=C(CC(F)(F)F)Nc1cccc(-c2ccc3c(c2)CC(c2cc(Cl)c(Cl)c(Cl)c2)(C(F)(F)F)O3)c1 (centres unmarked) [Compound 181],at least 80%,≥ 80,≥ 80,≥ 80,at least 80%,≥ 80
CCC(=O)Nc1cccc(-c2ccc3c(c2)CC(c2cc(Cl)cc(Cl)c2)(C(F)(F)F)O3)c1 (centres unmarked) [Compound 183],at least 80%,≥ 80,≥ 80,≥ 80,at least 80%,≥ 80
O=C(CCF)Nc1cccc(-c2ccc3c(c2)CC(c2cccc(C(F)(F)F)c2)(C(F)(F)F)O3)c1 (centres unmarked) [Compound 168],at least 80%,≥ 80,≥ 80,≥ 80,at least 80%,≥ 80
CC(=O)Nc1cc(-c2ccc3c(c2)CC(c2cc(Cl)cc(Cl)c2)(C(F)(F)F)O3)ccc1C#N (centres unmarked) [Compound 225],at least 80%,≥ 80,≥ 80,≥ 80,at least 80%,≥ 80
CC(C)C(=O)Nc1cc(-c2ccc3c(c2)CC(c2cc(Cl)c(Cl)c(Cl)c2)(C(F)(F)F)O3)c(F)cc1F (centres unmarked) [Compound 251],at least 80%,≥ 80,≥ 80,–,at least 80%,≥ 80
N#Cc1ccc(-c2ccc3c(c2)CC(c2cc(Cl)c(Cl)c(Cl)c2)(C(F)(F)F)O3)cc1NC(=O)CC(F)(F)F (centres unmarked) [Compound 252],at least 80%,≥ 80,≥ 80,–,at least 80%,≥ 80
CCC(=O)Nc1cc(-c2ccc3c(c2)CC(c2ccnc(Cl)c2)(C(F)(F)F)O3)ccc1C#N (racemic) [Compound 253],at least 80%,≥ 80,≥ 80,–,at least 80%,≥ 80
CC=CC(=O)Nc1cccc(-c2ccc3c(c2)CC(c2cc(Cl)cc(Cl)c2)(C(F)(F)F)O3)c1 (centres unmarked) [Compound 128],at least 80%,≥ 80,≥ 80,≥ 80,at least 80%,–
CCC(=O)Nc1cc(-c2ccc3c(c2)C[C@](c2cc(Cl)cc(Cl)c2)(C(F)(F)F)O3)ccc1C#N [Compound 266],at least 80%,≥ 80,≥ 80,–,at least 80%,≥ 80
CCC(=O)Nc1cc(-c2ccc3c(c2)CC(c2cc(Cl)c(Cl)c(Cl)c2)(C(F)(F)F)O3)ccc1F (centres unmarked) [Compound 250],at least 80%,≥ 80,≥ 80,–,at least 80%,≥ 80
CC(C)C(=O)Nc1cc(-c2ccc3c(c2)CC(c2cccc(C(F)(F)F)c2)(C(F)(F)F)O3)ccc1C#N (racemic) [Compound 259],at least 80%,≥ 80,≥ 80,–,at least 80%,–
CCC(=O)Nc1cc(-c2ccc3c(c2)CC(c2cccc(C(F)(F)F)c2)(C(F)(F)F)O3)ccc1C#N (racemic) [Compound 260],at least 80%,≥ 80,≥ 80,–,at least 80%,–
